# Source: PubChem BioAssay AID1259415 (National Center for Advancing Translational Sciences (NCATS), 2018)
# About 18,000 (4.4%) of roughly 410,000 compounds were called active. The inconclusive results got no clear call from the source; some entries with a clear call stand among them for comparison. No stated cut-off is given here; in the data, active means activity change below about -60%; inconclusive means no clear call, values can overlap the other calls; inactive means above about -39%.
# Test: qHTS Assay for inhibitors of the human cytomegalovirus (HCMV)
# Conditions: HFF cells, HCMV-luciferase reporter, 72 h; at 57.5 µM; stronger effect = lower value
# Summary of the method: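 Two-dose cell screen: HFF monolayers treated with compounds and infected with luciferase-expressing HCMV at 1 PFU/cell, 72 h at 37C, then lysed for luciferase measurement.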
# On the % scale 0 is the no-effect control and ±100 the full control effect.
row,SMILES,"activity change, negative = inhibition"
1,CCOc1ccc2nc(SCC(=O)N(C)C)[nH]c2c1,inactive: 41.3%
2,COc1ccc(-c2csc3ncnc(Nc4cccc(OC)c4)c23)cc1,inconclusive: -47.5%
3,O=C(CC(=O)N/N=C/c1c(Cl)cccc1Cl)NCc1cccnc1,inconclusive: -49.1%
4,O=C(Nc1ccc(OC(F)(F)F)cc1)N1CCc2nc(NCc3cccc(Oc4ccccc4)c3)ncc2C1,active: -92.2%
5,CCOCCCNC(=O)c1ccc(-n2c(-c3ccccc3)cc3c2CCC(C)C3)cc1 (stereo not drawn),active: -93.2%
6,COc1ccc([C@H]2/C=C\CN(C(=O)CC(C)(C)C)[C@@H](C)C(=O)N2Cc2ccc(F)cc2)cc1,active: -60%
7,Cc1nn2c(SCC(=O)c3cccs3)cc(C(C)(C)C)nc2c1-c1ccccc1,inconclusive: -45.4%
8,COc1ccc(-n2c(=O)[nH]cc(C(=O)N3CCc4ccccc43)c2=O)cc1,inconclusive: -42.5%
9,CCCc1c(-c2cccc(Cl)c2)ncn1CCc1ccccc1OC,inconclusive: -55.1%
10,CC(C)(C)OC(=O)N1CCCC(C(=O)Nc2cccc(C(=O)NC3CC3)c2)C1 (stereo not drawn),inactive: -14.7%
11,Cc1ccc(NC(=O)C2(c3ccccc3)CCOCC2)c([N+](=O)[O-])c1,inconclusive: -42%
12,Cc1ccc(CN2C(=O)c3ccccc3Sc3ccc(C(=O)N4CCC5(CC4)OCCO5)cc32)cc1,inconclusive: -48.3%
13,O=C(CC1N=C2c3ccccc3N=C(SCc3ccccc3Cl)N2C1=O)NCCc1ccccc1 (stereo not drawn),inactive: -17.4%
14,O=C(O)C1C2CCC(O2)C1C(=O)Nc1ccc(Cl)cc1 (stereo not drawn),inconclusive: -46.8%
15,CCOc1ccc(NC(=O)N2CCN(c3nnc(C)c4c(C)n(-c5ccccc5)nc34)CC2)cc1,inactive: 0.0064%
16,CCn1c2ccccc2c2nnc(SCC(=O)Nc3ccc4c(c3)OCO4)nc21,inconclusive: -47.7%
17,COc1ccc(C(C#N)CC(=O)c2ccc(OC)c(OCc3ccccc3)c2)cc1OC (stereo not drawn),active: -69.9%
18,O=c1c(=O)n(-c2ccc(F)c(F)c2)ccn1Cc1ccc(F)cc1Cl,inactive: -30.8%
19,COc1ccc(-n2c(SCC(=O)N(C)c3ccccc3)nc3c([nH]c4ccccc43)c2=O)cc1OC,inactive: 29%
20,Cc1cccc(C(=O)Nc2ccnc(-c3ccncc3)n2)c1,inconclusive: -57.7%
21,Cc1ccc(C)c(N2CCN(C(=S)Nc3ccc4nc(N5CCOCC5)cc(C)c4c3)CC2)c1,inactive: -21.6%
22,NS(=O)(=O)c1ccc(NC(=O)Nc2cccc(Cl)c2)cc1,inconclusive: -48.8%

# Entries from the list above that contain an NH in an aromatic ring (3):
row,SMILES,"activity change, negative = inhibition"
1,CCOc1ccc2nc(SCC(=O)N(C)C)[nH]c2c1,inactive: 41.3%
8,COc1ccc(-n2c(=O)[nH]cc(C(=O)N3CCc4ccccc43)c2=O)cc1,inconclusive: -42.5%
19,COc1ccc(-n2c(SCC(=O)N(C)c3ccccc3)nc3c([nH]c4ccccc43)c2=O)cc1OC,inactive: 29%

# Further results follow.

row,SMILES,"activity change, negative = inhibition"
1,CCC1CCCCN1S(=O)(=O)c1ccc(S(=O)(=O)N(Cc2ccccn2)CC2CCCO2)cc1 (stereo not drawn),inactive: -23.1%
2,CC(=O)N1CCSc2ccc(S(=O)(=O)Nc3cccc(C)c3)cc21,inconclusive: -42.5%
3,CCN1C(C)=C(C)S/C1=C1\SC(=S)N(C2CCCCC2)C1=O,inconclusive: -48.3%
4,CCc1ccc(C(=O)c2cn(CC(=O)Nc3cccc(OC)c3)c3cc4c(cc3c2=O)OCO4)cc1,inactive: 2.18%
5,COc1cc2oc3cc(C#Cc4ccc(N)cc4)ccc3c(=O)c2cc1OC,inactive: -4.39%
6,O=C(Cn1c2ccccc2c(=O)c2ccccc21)N/N=C/c1cc([N+](=O)[O-])ccc1N1CCCCCC1,active: -73%
7,CCc1cc2ccc(C)cc2nc1SCC(=O)NNC(=O)c1ccco1,inconclusive: -41%
8,COc1ccc2c(c1)c(C(=O)N/N=C/c1cccc(O)c1)c(C)n2C,inconclusive: -55.5%
9,O=C(NC1CCCCCC1)C1CCN(c2nc3ccccc3o2)CC1,active: -74.1%
10,CCCNC(=O)c1ccc(COc2ccc(CCC)cc2OC)o1,active: -61.8%
11,CCOc1ccccc1-n1c(SCC(=O)Nc2ccccc2C(=O)O)nc2ccccc2c1=O,active: -80.7%
12,COc1ccc(/C=N/NC(=O)c2ccc(-n3cnnn3)cc2)cc1,inconclusive: -40.7%
13,O=C(N=Nc1c(O)[nH]c2ccc(Br)cc12)c1ccccc1-n1cccc1,inconclusive: -48%
14,O=C(Cc1ccc(F)cc1)Nc1ccc(S(=O)(=O)N2CCCC2)cc1,inconclusive: -47.8%
15,O=C(CCNC(=O)c1ccc([N+](=O)[O-])cc1)NC1CCCc2ccccc21 (stereo not drawn),inactive: -1.87%
16,Cc1c(C(=O)NC(C)C2CC3CCC2C3)cccc1[N+](=O)[O-] (stereo not drawn),inconclusive: -44.7%
17,CC1CCCC(NC(=O)Cn2c(Cl)nc3c2c(=O)n(C)c(=O)n3C)C1C (stereo not drawn),inconclusive: -46%
18,S=c1nc[nH]c2c1ncn2C1CCCO1 (stereo not drawn),inactive: 16.1%
19,CCOc1ccc(NC(=O)CN(C)C(=O)CCCc2c[nH]c3ccccc23)cc1OCC,inactive: -37.8%
20,CCOC(=O)C(C)Sc1ccc2nnc(CCNS(=O)(=O)c3ccc(C)cc3)n2n1 (stereo not drawn),inconclusive: -41.8%
21,CCCS(=O)(=O)N1CCC(C(=O)NCCCN2CCC(Cc3ccccc3)CC2)CC1,inconclusive: -40.5%
22,COCC(C)NC(=O)CCS(=O)(=O)c1nc(-c2ccc(OC)cc2)cc(C(F)(F)F)n1 (stereo not drawn),active: -104%

row,SMILES,"activity change, negative = inhibition"
1,CC(C)COc1nc2ccccc2nc1C(C#N)C(=O)NC1CCCCC1 (stereo not drawn),inconclusive: -57.9%
2,O=C(/C=C/c1ccco1)Nc1ccc2c(c1)OCO2,inconclusive: -42.4%
3,COc1cc(C(=O)Nc2nc(-c3ccc(Cl)cc3)c(C)s2)ccc1OCC(=O)Nc1ccc(F)cc1,inactive: -29.9%
4,CCn1cc(/C=C(\NC(=O)c2ccccc2)C(=O)NCCCN2CCOCC2)c2ccccc21,inconclusive: -43.5%
5,CSc1nc(-c2ccccc2)cn1-c1ccc(NC(C)=O)cc1,inactive: 37.1%
6,Cc1ccc(CNCc2ccccc2Cl)s1,inactive: -3.19%
7,O=C1/C(=C\c2cccnc2)CCc2ccccc21,inconclusive: -45.4%
8,CCN(C(=O)Cn1c(=O)n(-c2cc(OC)c(OC)c(OC)c2)c(=O)c2ccccc21)c1cccc(C)c1,inactive: 2.3%
9,O=C(CCCC(=O)N(CC(=O)NC1CCCC1)Cc1ccccc1Cl)Nc1ccccn1,active: -99.6%
10,CC(C)Cn1c(N)c(C(=O)COC(=O)c2cc(C(F)(F)F)nc3ccccc23)c(=O)n(C)c1=O,inactive: -3.2%
11,Cc1ccccc1NC(=O)Cc1nc(COC(=O)Cc2c(F)cccc2Cl)cs1,inactive: 0.474%
12,O=c1[nH]c(=O)c2[nH]c(=S)[nH]c2[nH]1,inactive: -12.9%
13,COc1cc(CCCN2C(N)=NC[C@H]2Cc2ccc(O)cc2)cc(OC)c1OC,inactive: -18.2%
14,CCCCc1nnc(NC(=O)CSCc2cc(=O)n3cc(C)sc3n2)s1,inactive: -37.7%
15,Cc1ccc(S(=O)(=O)NCC(c2cccnc2)N2CCOCC2)cc1 (stereo not drawn),active: -79.1%
16,Cc1ccc(S(=O)(=O)N2CCOCC2)cc1C(=O)N1CCc2ccccc21,inactive: 7.93%
17,COc1ccc2nc(N3CCCC(C(=O)NCCCN4C(C)CCCC4C)C3)sc2c1 (stereo not drawn),inactive: 24%
18,COc1ccccc1NC(=O)N1CCc2[nH]c3ccc(F)cc3c2C1,inactive: 3.19%
19,CN(C)C=NC(=O)/C(C#N)=C/c1ccccc1,inconclusive: -52.9%
20,CCc1ccc(NS(=O)(=O)c2ccc(-c3cc(C)no3)cc2)cc1,inconclusive: -45.9%
21,c1ccc(-n2nnnc2SCc2cn3ccccc3n2)cc1,inactive: 0.0643%
22,O=C1/C(=C/c2cccnc2)SC(=S)N1Cc1ccco1,inconclusive: -45.1%

row,SMILES,"activity change, negative = inhibition"
1,CCNC(=S)N1CCN(C(=O)C(Cc2ccccc2)NC(C)=O)CC1 (stereo not drawn),inconclusive: -55.2%
2,CCCOc1ccccc1/C=C1\SC(N)=NC1=O,active: -63.5%
3,CN(C)CCN(Cc1ccco1)C(=O)c1cc2c(s1)-c1ccccc1OC2,inconclusive: -56.9%
4,CCOC(=O)Cc1ncccc1C(=O)Nc1ccc(Oc2ccccc2)cc1,active: -97.8%
5,O=C(/C=C/c1ccc2c(c1)OCO2)c1cccnc1,inactive: -38.2%
6,CCSc1ccccc1C(=O)Nc1cccc(OC)c1,inconclusive: -52.4%
7,Cn1c(=O)oc2cc(S(=O)(=O)NCc3ccc(Cl)cc3)ccc21,inconclusive: -42.7%
8,CC(=O)N(/N=C1\Sc2ccccc2C1=O)c1ccc(C)cc1C,active: -85.6%
9,O=C(CCn1ccc([N+](=O)[O-])n1)Nc1nccs1,inconclusive: -47.8%
10,COC(=O)C/C(N)=C(\C#N)C(=O)OC,inconclusive: -48.6%
11,CCOc1ccc(N2CC(=O)SC2=S)cc1,inconclusive: -52.2%
12,COCc1cc(CN2CCN(C)CC2)c(O)c2ncccc12,inconclusive: -41.4%
13,COc1ccc(N2C(=O)C(CC(=O)Nc3ccccc3)N(CCc3ccc(OC)c(OC)c3)C2=O)cc1 (stereo not drawn),inconclusive: -48.6%
14,COC(=O)c1cc(CSc2nc3ccc(C)cc3[nH]2)oc1C,inconclusive: -51.9%
15,O=C1CCN(C2CCN(Cc3nc(Cc4ccccc4F)no3)CC2)CCN1,inconclusive: -40.9%
16,Cn1c(SCc2c(F)cccc2Cl)nc2c(c1=O)SCC2,inconclusive: -54.3%
17,O=C(NCc1ccncc1)c1cccc(S(=O)(=O)N2CCc3ccccc32)c1,inconclusive: -49.5%
18,CCOC(=O)NCc1ccc(S(=O)(=O)Nc2ccc(C)cc2)cc1,inconclusive: -44.2%
19,CCn1c(C)nc2cc(OC)ccc21,inconclusive: -43.4%
20,CCOC(=O)c1ccccc1NC(=O)CSc1nnc(Cc2cccn2C)n1-c1ccc(F)cc1,inactive: 23.3%
21,COC(=O)[C@@H](CC(C)C)NS(=O)(=O)N(Cc1ccccc1)[C@@H](CC(C)C)C(=O)OC,inconclusive: -45.9%
22,O=C(c1ccccc1)n1ccn(-c2ccccc2)c1=S,inactive: -10.4%
